Results deposited as PubChem BioAssay AID1259308 (NCATS, 2017)
Screen: 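Genes whose loss raises luciferase production in HEK293 cells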 (primary screen). System: human HEK293 embryonic kidney cells stably expressing firefly luciferase (HEK-CMV-Luc2-Hygro). Knock-down reagent: single siRNA against human genes, 0.8 pmol siRNA per well. Duration: 72 h. Measurement: 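Luciferase light (ONE-Glo) measured on one replicate plate set and viability (CellTiter-Glo) on the other, scaled to a negative control siRNA, with robust z-scores and luciferase per cell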. Reading the numbers: total luciferase, z-score and total luciferase, % of control: higher = more reporter protein produced; luciferase per cell, z-score: higher = more reporter output per viable cell. Active means: 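An siRNA counts as active if its total luciferase robust z-score exceeds 3; genes with two or more such siRNAs out of three were retested with fresh siRNAs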. Meaning of the calls: active = raised luciferase; inactive = no rise.
The whole screen tested about 59,000 reagents; shown is a random part of them. About 1,510 of all reagents (2.6%) were called active. 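Calls use total luciferase alone and ignore viability, so some active siRNAs may act by altering cell number.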 The numbers tell different reagents against one gene apart. Not all columns of the deposit are shown.

| gene | reagent no. | total luciferase, z-score | total luciferase, % of control | luciferase per cell, z-score | call |
| --- | --- | --- | --- | --- | --- |
| ADRA1D (adrenoceptor alpha 1D) | 1 | 0.0864 | 83.6 | -0.238 | inactive |
| ADRA1D (adrenoceptor alpha 1D) | 2 | -0.0792 | 80.3 | -0.569 | inactive |
| ADRA1D (adrenoceptor alpha 1D) | 3 | 0.474 | 91.3 | 0.523 | inactive |
| FSTL5 (follistatin like 5) | 1 | 0.263 | 87.1 | -0.429 | inactive |
| FSTL5 (follistatin like 5) | 2 | -0.0274 | 81.3 | -0.0306 | inactive |
| FSTL5 (follistatin like 5) | 3 | -0.872 | 64.5 | -0.481 | inactive |
| DRC9 (dynein regulatory complex subunit 9) | 1 | -0.735 | 67.3 | -0.01 | inactive |
| DRC9 (dynein regulatory complex subunit 9) | 2 | -0.153 | 78.9 | -0.639 | inactive |
| DRC9 (dynein regulatory complex subunit 9) | 3 | 0.394 | 89.7 | 0.0631 | inactive |
| GLE1 (GLE1 RNA export mediator) | 1 | 1.71 | 116 | 3.51 | inactive |
| GLE1 (GLE1 RNA export mediator) | 2 | -0.0908 | 80.1 | -0.283 | inactive |
| GLE1 (GLE1 RNA export mediator) | 3 | -2.31 | 36 | -1.88 | inactive |
| ABCC3 (ATP binding cassette subfamily C member 3) | 1 | -0.669 | 68.6 | -1.6 | inactive |
| ABCC3 (ATP binding cassette subfamily C member 3) | 2 | -1.43 | 53.4 | -1.06 | inactive |
| ABCC3 (ATP binding cassette subfamily C member 3) | 3 | -0.0304 | 81.3 | -0.0142 | inactive |
| GSG1L (GSG1 like) | 1 | -1.25 | 56.9 | -0.298 | inactive |
| GSG1L (GSG1 like) | 2 | 0.59 | 93.6 | 0.386 | inactive |
| GSG1L (GSG1 like) | 3 | 1.42 | 110 | 3.75 | inactive |
| TMEM129 (transmembrane protein 129, E3 ubiquitin ligase) | 1 | 0.713 | 96.1 | 1.71 | inactive |
| TMEM129 (transmembrane protein 129, E3 ubiquitin ligase) | 2 | 0.821 | 98.2 | 1.31 | inactive |
| TMEM129 (transmembrane protein 129, E3 ubiquitin ligase) | 3 | 2.66 | 135 | 1.42 | inactive |
| SPATA31E1 (SPATA31 subfamily E member 1) | 1 | -0.249 | 76.9 | 0.167 | inactive |
| SPATA31E1 (SPATA31 subfamily E member 1) | 2 | -0.14 | 79.1 | -0.393 | inactive |
| SPATA31E1 (SPATA31 subfamily E member 1) | 3 | 2.73 | 136 | 1.59 | inactive |
| TNPO3 (transportin 3) | 1 | 0.313 | 88.1 | 1.39 | inactive |
| TNPO3 (transportin 3) | 2 | -1.26 | 56.9 | -1.58 | inactive |
| TNPO3 (transportin 3) | 3 | -0.581 | 70.3 | -0.804 | inactive |
| KCNAB1 | 1 | 0.347 | 88.8 | -0.42 | inactive |
| KCNAB1 | 2 | -1.45 | 53.1 | -1.6 | inactive |
| KCNAB1 | 3 | 0.0325 | 82.5 | -1.1 | inactive |
| KRTAP13-2 (keratin associated protein 13-2) | 1 | 0.345 | 88.7 | 0.0128 | inactive |
| KRTAP13-2 (keratin associated protein 13-2) | 2 | 0.532 | 92.5 | 0.159 | inactive |
| KRTAP13-2 (keratin associated protein 13-2) | 3 | -0.0446 | 81 | 0.142 | inactive |
| DMRTC2 (DMRT like family C2) | 1 | -0.955 | 62.9 | -1.02 | inactive |
| DMRTC2 (DMRT like family C2) | 2 | 0.161 | 85.1 | 0.277 | inactive |
| DMRTC2 (DMRT like family C2) | 3 | -0.233 | 77.3 | 0.502 | inactive |
| YIPF2 (Yip1 domain family member 2) | 1 | -0.496 | 72 | -0.136 | inactive |
| YIPF2 (Yip1 domain family member 2) | 2 | 1.51 | 112 | 0.825 | inactive |
| YIPF2 (Yip1 domain family member 2) | 3 | 1.23 | 106 | 1.22 | inactive |
| RGS17 (regulator of G protein signaling 17) | 1 | 3.64 | 154 | 2.36 | active |
| RGS17 (regulator of G protein signaling 17) | 2 | -0.0616 | 80.7 | -0.139 | inactive |
| RGS17 (regulator of G protein signaling 17) | 3 | -0.112 | 79.7 | -0.841 | inactive |
| KCMF1 (potassium channel modulatory factor 1) | 1 | 1.7 | 116 | 0.637 | inactive |
| KCMF1 (potassium channel modulatory factor 1) | 2 | 0.673 | 95.3 | 0.244 | inactive |
| KCMF1 (potassium channel modulatory factor 1) | 3 | 0.0386 | 82.7 | 0.0514 | inactive |
| LIN28A (lin-28 RNA binding posttranscriptional regulator A) | 1 | 0.906 | 99.9 | 1.15 | inactive |
| LIN28A (lin-28 RNA binding posttranscriptional regulator A) | 2 | 0.21 | 86.1 | 0.402 | inactive |
| LIN28A (lin-28 RNA binding posttranscriptional regulator A) | 3 | 0.502 | 91.9 | 0.306 | inactive |
| ZNF8 (zinc finger protein 8) | 1 | 0.471 | 91.2 | 0.662 | inactive |
| ZNF8 (zinc finger protein 8) | 2 | 0.911 | 100 | 0.544 | inactive |
| ZNF8 (zinc finger protein 8) | 3 | 0.293 | 87.7 | 0.295 | inactive |
| AUNIP (aurora kinase A and ninein interacting protein) | 1 | -0.199 | 77.9 | 0.382 | inactive |
| AUNIP (aurora kinase A and ninein interacting protein) | 2 | 0.0801 | 83.5 | -0.415 | inactive |
| AUNIP (aurora kinase A and ninein interacting protein) | 3 | -0.458 | 72.8 | -0.137 | inactive |
| CACNA1S (calcium voltage-gated channel subunit alpha1 S) | 1 | -0.737 | 67.2 | -0.113 | inactive |
| CACNA1S (calcium voltage-gated channel subunit alpha1 S) | 2 | -2.46 | 33 | -3.13 | inactive |
| CACNA1S (calcium voltage-gated channel subunit alpha1 S) | 3 | 0.083 | 83.5 | -0.0526 | inactive |
